The other results are listed elsewhere or left out. These are further read-outs of the screen, such as a control signal, another cell line or another target. No call is given for them. The list favours compounds with an active or inconclusive main result. Potencies come from curve fits of mixed quality, noted in brackets.
Assay: qHTS Assay for Modulators of Lamin A Splicing
Settings: HeLa LMNA splicing GFP/RFP minigene ratio, 48 h
Outline: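 S3 HeLa cells stably expressing lamin A-EGFP splicing minigene plus DsRed2, 600 cells/well, 48 h compound exposure at 37C. Laser-scanning cytometry; analysed as GFP (500-530 nm)/RFP (575-640 nm) total intensity ratio; 0.5% DMSO vehicle.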

[1] = measured here: RFP viability control channel
[2] = measured here: GFP splicing reporter channel

Row | Compound | AC50 [1] | AC50 [2]
1 | COc1ccc(-c2nn(-c3ccccc3)cc2C(=O)OCC(=O)c2ccc(C)c([N+](=O)[O-])c2)cc1 | 15.8 µM [rising, single point] | 
2 | Cc1cc(Nc2ccc(Cl)cc2)n(-c2cccc(Cl)c2)n1 | 14.1 µM [rising, single point] | 11.2 µM [rising, single point]
3 | COc1ccc(C(=O)Oc2ccc(C(=S)N3CCOCC3)cc2)cc1 | 0.1 µM [falling, full curve] | 0.0708 µM [falling, full curve]
4 | COc1ccccc1-c1nnc(SCC(=O)Nc2nc(-c3ccccc3)cs2)n1C | 8.91 µM [rising, partial curve] | 5.01 µM [rising, partial curve]
5 | CC1CCN(CCCNC(=O)CN2C(=O)CSc3ccc(S(=O)(=O)N4CCOCC4)cc32)CC1 |  | 5.62 µM [rising, single point]
6 | O=C(O)c1ccc(CSc2nc(-c3ccc(Cl)cc3)cc(C(F)(F)F)n2)cc1 | 35.5 µM [falling, single point] | 35.5 µM [falling, single point]
7 | O=[N+]([O-])c1ccccc1/C=C/C=N/n1c(-c2ccccc2)n[nH]c1=S | 11.2 µM [rising, single point] | 
8 | CCCOc1ccc(C(=O)NC(=S)NCc2cccnc2)cc1 | 35.5 µM [rising, single point] | 15.8 µM [rising, partial curve]
9 | Clc1cccc(-n2ncc3c(NCCCN4CCOCC4)ncnc32)c1 |  | 0.00447 µM [falling, full curve, poor fit]
10 | CCCOC(=O)c1ccc(NC(=O)c2ccccc2[N+](=O)[O-])cc1 | 0.0251 µM [falling, full curve, poor fit] | 
11 | Nc1ccc(C(=O)O)cc1[N+](=O)[O-] | 11.2 µM [falling, partial curve, poor fit] | 15.8 µM [falling, single point]
12 | CCc1ccccc1N(C(=O)CCC(=O)Nc1cc(C)on1)C(C(=O)NC1CCCC1)c1ccco1 (stereo unspecified) | 25.1 µM [rising, single point] | 
13 | COc1ccc(-c2noc(CN(C(=O)c3c(-c4ccccc4Cl)noc3C)C(C)C)n2)cc1 | 14.1 µM [rising, single point] | 
14 | COc1cc(-c2ccno2)ccc1S(=O)(=O)N1CCN(c2ccccc2)CC1 |  | 0.282 µM [rising, partial curve]
15 | Cc1ccc2nc(-c3ccncc3)cc(C(=O)NCCc3ccc(F)cc3)c2c1 | 17.8 µM [falling, single point] | 3.55 µM [falling, single point]
16 | CN(C)c1ccc(CNC(=O)C2CCN(S(=O)(=O)c3ccc4[nH]c(=O)ccc4c3)CC2)cc1 |  | 0.178 µM [falling, full curve, poor fit]
17 | Clc1ccc(/C=C/c2nc3ccccc3[nH]2)c(Cl)c1 | 11.2 µM [falling, partial curve] | 20 µM [falling, single point]
18 | CNS(=O)(=O)c1cnccc1N1CCN(c2cccc(Cl)c2)CC1 | 31.6 µM [rising, single point] | 12.6 µM [rising, partial curve]
19 | O=[N+]([O-])c1ccccc1/C=C/C=N/Nc1nc(N2CCCCC2)nc(N2CCCCC2)n1 | 0.282 µM [rising, partial curve] | 
20 | Cc1cc(N2CCC(C)CC2)nc(-n2nc(C)cc2C)n1 | 10 µM [rising, partial curve, poor fit] | 
21 | COc1ccc(C(=O)N(c2ccc(C)cc2)S(=O)(=O)c2ccc(C)cc2)cc1 | 14.1 µM [rising, single point] | 
22 | O=C(CSc1nc2ccccc2c(=O)n1CCCN1CCOCC1)Nc1cccc(S(=O)(=O)N2CCCCCC2)c1 | 25.1 µM [rising, single point] | 
23 | COc1cc(C(=O)Nc2cc(-c3ccccc3)[nH]n2)cc(OC)c1OC | 12.6 µM [rising, partial curve] | 
24 | CS(=O)(=O)Nc1cccc(C2=NN(S(C)(=O)=O)C(c3ccccc3)C2)c1 (stereo unspecified) | 1.41 µM [falling, partial curve, poor fit] | 
25 | CCCCNS(=O)(=O)c1ccc(S(=O)(=O)NCc2ccncc2)cc1 | 7.94 µM [rising, partial curve] | 10 µM [rising, partial curve]
26 | CCOc1ccc(NC(=O)COc2nsnc2N2CCCCC2)cc1 | 35.5 µM [rising, single point] | 35.5 µM [rising, single point]
27 | COc1ccc(/C=C2\C(=O)NC(=S)N2C(=O)c2ccc(C)cc2)cc1 | 22.4 µM [rising, single point] | 

Row | Compound | AC50 [1] | AC50 [2]
28 | COc1ccc(Nc2nc(-c3cccs3)nc3ccccc23)cc1 | 35.5 µM [rising, single point] | 
29 | O=C(CSc1ccc(-c2nc3ccccc3[nH]2)cn1)N1CCN(C(=O)c2ccco2)CC1 | 10 µM [rising, partial curve] | 
30 | O=S(=O)(c1ccc(S(=O)(=O)N2CCOCC2)cc1)N1CCCC1 |  | 35.5 µM [falling, single point]
31 | Cc1nc(Nc2ccccc2)sc1-c1ccccc1 | 0.00447 µM [rising, full curve, poor fit] | 
32 | O=C(/C=C/c1ccc(Cl)cc1)N1CCN(c2ccccc2[N+](=O)[O-])CC1 | 31.6 µM [rising, single point] | 
33 | COC(=O)N/N=C/c1cn(Cc2ccccc2Cl)c2ccccc12 | 12.6 µM [rising, partial curve] | 12.6 µM [rising, single point]
34 | C=C(C)CNC(=S)N/N=C/c1ccc(NC(C)=O)cc1 | 0.00316 µM [falling, full curve, poor fit] | 0.0316 µM [falling, full curve, poor fit]
35 | Cc1nn(C2CCS(=O)(=O)C2)c(Cl)c1/C=C/C(=O)OCC(=O)c1cc(C)n(-c2ccc(F)cc2)c1C (stereo unspecified) | 12.6 µM [rising, partial curve] | 8.91 µM [rising, partial curve]
36 | COc1ccc(CCNC(=O)Cn2c(-c3ccc(F)cc3)cc(C(C)=O)c2C)cc1OC |  | 3.55 µM [rising, partial curve, poor fit]
37 | CCCCOc1cccc(-c2cc(C(=O)NNC(=S)NCC)c3ccccc3n2)c1 | 17.8 µM [rising, single point] | 20 µM [rising, single point]
38 | c1sc2[n+](c1C13CC4CC(CC(C4)C1)C3)CCS2 | 20 µM [rising, partial curve] | 11.2 µM [rising, partial curve]
39 | O=c1c(-c2cc(F)cc(F)c2)nc2cncnc2n1Cc1ccccc1 | 2.24 µM [falling, partial curve, poor fit] | 0.0631 µM [falling, full curve, poor fit]
40 | CSC1=N/C(=C\c2ccc(F)cc2)C(=O)S1 |  | 7.94 µM [falling, partial curve, poor fit]
41 | CCC/C(=N\NC(=O)c1ccc(OC)c(OC)c1)c1ccccc1 |  | 0.01 µM [falling, full curve, poor fit]
42 | CCOP(=O)(OCC)C(Nc1cccc(C(F)(F)F)c1)c1ccc(F)cc1 (stereo unspecified) | 31.6 µM [rising, single point] | 
43 | CC1CCCC(C)N1C(=O)Cn1c(SCC(=O)NCc2ccc3c(c2)OCO3)nc2ccccc21 (stereo unspecified) |  | 15.8 µM [rising, partial curve, poor fit]
44 | O=C(Nc1ccn(Cc2ccccc2F)n1)c1ccc(COc2ccccc2Cl)cc1 | 10 µM [rising, partial curve] | 10 µM [rising, partial curve]
45 | Cc1ccc(S(=O)(=O)/N=C(\CCl)N2CCOCC2)cc1 | 35.5 µM [rising, single point] | 
46 | O=C(Cn1c(-c2cscn2)nc2ccccc21)Nc1ccc(Cl)cc1 | 15.8 µM [rising, partial curve] | 
47 | Cc1noc(C)c1-c1ccc2ncnc(NCc3cccnc3)c2c1 |  | 2.51 µM [falling, full curve]
48 | Cc1nc(NC2=NCN(CCCN3CCOCC3)CN2)nc2c(C)cccc12 | 35.5 µM [rising, single point] | 
49 | Cc1cc2cc(CNC(=O)c3cc4ccccc4o3)ccc2n1C | 3.55 µM [falling, partial curve] | 3.55 µM [falling, single point]
50 | CCOc1cc(C2C(C(=O)Nc3ccccc3)=C(C)Nc3ncnn32)cc(Br)c1O (stereo unspecified) |  | 0.00447 µM [falling, full curve, poor fit]
51 | COc1ccc(NC(=O)CN2C(=O)CSc3ccc(S(=O)(=O)N(C)C)cc32)cc1OC |  | 1.58 µM [rising, full curve, poor fit]
52 | O=C(CN1CCN(c2ccccc2O)CC1)NCCCc1ccccc1 | 0.891 µM [rising, single point] | 0.316 µM [rising, partial curve]
53 | Cc1nc([N+](=O)[O-])c(Br)n1CC(=O)c1ccc(Cl)cc1 | 35.5 µM [falling, single point] | 20 µM [falling, single point]
54 | CC1=NOC(=O)/C1=C\c1ccc(-c2ccc(Cl)cc2Cl)o1 | 28.2 µM [falling, single point] | 35.5 µM [falling, single point]

— PubChem BioAssay AID1487 (National Center for Advancing Translational Sciences (NCATS), 2009)
